The experiment deals with Filamin 1 (clone from the mouse E11 whole embryo library, yeast two-hybrid prey) (mouse) (UniProt Q8BTM8). As to the kind of experiment: yeast two-hybrid screen, mouse E11 whole embryo library as prey.

Chains of the proteins cited; added tags and fusions are not shown. Residues count along the entry.
UniProt Q8BTM8, residues 2-2647: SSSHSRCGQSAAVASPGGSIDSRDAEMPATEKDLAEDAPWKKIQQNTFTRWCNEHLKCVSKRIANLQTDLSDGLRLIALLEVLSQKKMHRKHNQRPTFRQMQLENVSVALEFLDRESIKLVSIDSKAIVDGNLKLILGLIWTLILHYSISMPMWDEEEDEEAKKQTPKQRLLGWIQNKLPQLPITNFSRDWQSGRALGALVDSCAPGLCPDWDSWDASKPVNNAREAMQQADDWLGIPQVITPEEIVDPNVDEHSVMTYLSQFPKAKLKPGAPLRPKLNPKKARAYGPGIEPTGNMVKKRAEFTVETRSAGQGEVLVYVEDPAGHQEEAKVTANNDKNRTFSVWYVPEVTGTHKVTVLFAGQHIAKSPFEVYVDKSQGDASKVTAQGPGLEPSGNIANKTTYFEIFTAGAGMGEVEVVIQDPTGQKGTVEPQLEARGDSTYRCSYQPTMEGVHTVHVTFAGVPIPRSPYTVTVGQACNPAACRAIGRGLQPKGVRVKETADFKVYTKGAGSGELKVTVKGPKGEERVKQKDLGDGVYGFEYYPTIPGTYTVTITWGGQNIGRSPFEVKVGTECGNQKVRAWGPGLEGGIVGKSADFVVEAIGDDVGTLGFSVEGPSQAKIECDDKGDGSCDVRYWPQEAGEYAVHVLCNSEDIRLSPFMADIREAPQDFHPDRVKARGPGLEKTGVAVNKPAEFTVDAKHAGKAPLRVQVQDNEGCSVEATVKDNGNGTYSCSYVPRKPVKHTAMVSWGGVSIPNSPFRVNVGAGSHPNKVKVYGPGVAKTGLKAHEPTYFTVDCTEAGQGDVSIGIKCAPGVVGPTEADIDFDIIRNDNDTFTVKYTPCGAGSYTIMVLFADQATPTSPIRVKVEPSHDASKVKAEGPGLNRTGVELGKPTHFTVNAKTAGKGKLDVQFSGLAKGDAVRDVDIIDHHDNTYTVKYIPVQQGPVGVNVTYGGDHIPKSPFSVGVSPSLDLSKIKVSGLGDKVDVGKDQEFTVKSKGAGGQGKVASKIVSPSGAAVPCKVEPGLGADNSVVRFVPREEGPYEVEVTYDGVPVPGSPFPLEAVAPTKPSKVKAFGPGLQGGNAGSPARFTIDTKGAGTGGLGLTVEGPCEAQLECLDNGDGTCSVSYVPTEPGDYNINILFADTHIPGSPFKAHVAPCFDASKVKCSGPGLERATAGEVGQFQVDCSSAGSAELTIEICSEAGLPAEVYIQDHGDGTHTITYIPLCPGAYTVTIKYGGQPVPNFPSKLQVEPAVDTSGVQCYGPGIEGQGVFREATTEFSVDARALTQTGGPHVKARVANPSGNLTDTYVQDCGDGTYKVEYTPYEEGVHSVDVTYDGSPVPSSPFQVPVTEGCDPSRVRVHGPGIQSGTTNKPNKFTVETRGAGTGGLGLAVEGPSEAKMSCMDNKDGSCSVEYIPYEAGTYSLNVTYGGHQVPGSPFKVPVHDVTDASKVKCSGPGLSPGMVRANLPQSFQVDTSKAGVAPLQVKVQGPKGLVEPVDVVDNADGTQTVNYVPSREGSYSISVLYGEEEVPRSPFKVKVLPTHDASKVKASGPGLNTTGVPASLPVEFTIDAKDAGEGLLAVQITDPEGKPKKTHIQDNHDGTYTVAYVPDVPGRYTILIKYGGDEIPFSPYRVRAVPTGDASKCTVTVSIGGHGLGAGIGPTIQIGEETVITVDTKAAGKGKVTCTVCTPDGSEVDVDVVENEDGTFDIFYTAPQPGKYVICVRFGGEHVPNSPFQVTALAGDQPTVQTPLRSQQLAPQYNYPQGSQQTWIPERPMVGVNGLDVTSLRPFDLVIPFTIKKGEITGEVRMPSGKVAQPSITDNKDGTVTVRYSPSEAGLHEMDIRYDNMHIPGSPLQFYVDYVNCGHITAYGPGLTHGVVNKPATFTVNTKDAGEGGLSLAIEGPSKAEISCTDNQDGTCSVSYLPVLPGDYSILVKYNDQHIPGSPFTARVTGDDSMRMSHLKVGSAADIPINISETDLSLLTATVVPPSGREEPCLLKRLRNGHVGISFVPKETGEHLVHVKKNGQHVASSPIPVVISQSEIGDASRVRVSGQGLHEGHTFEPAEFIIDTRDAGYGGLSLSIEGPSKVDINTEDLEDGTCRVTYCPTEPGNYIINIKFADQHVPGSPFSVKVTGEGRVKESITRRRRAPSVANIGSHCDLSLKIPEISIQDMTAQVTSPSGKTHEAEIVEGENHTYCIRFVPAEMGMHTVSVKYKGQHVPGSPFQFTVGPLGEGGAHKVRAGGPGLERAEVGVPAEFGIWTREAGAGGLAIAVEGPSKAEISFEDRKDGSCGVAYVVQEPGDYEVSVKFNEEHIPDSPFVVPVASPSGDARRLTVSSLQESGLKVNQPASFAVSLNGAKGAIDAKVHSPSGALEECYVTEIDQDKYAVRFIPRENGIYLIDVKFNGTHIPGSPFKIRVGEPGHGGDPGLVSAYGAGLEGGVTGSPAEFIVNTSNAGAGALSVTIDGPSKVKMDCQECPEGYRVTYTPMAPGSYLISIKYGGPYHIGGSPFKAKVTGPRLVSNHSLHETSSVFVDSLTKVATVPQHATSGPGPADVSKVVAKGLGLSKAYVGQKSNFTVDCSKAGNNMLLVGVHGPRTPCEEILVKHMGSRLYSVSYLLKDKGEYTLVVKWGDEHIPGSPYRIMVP

No constants are given. Whether binding was seen depends on the method and setting. Some results given as binding are weak or reduced against the parent protein; the word gives no strength.

B1: common C-terminal region of FILIPs (residues 508-965 of the deduced amino acid sequence of S-FILIP), yeast two-hybrid bait (protein, not shown: large carriers)
chain: MEEETKNKNMGREVLNLTKELELSKRYSRALRPSGNGRRMVDVPVASTGVQTEAVCGDAAEEETPAVFIRKSFQEENHIMSNLRQVGLKKPMERSSVLDRYPPAANELTMRKSWIPWMRKRENGPSTPQEKGPRPNQGAGHPGELVLAPKQGQPLHIRVTPDHENSTATLEITSPTSEEFFSSTTVIPTLGNQKPRITIIPSPNVMSQKPKSADPTLGPERAMSPVTITTISREKSPEGGRSAFADRPASPIQIMTVSTSAAPTEIAVSPESQEVPMGRTILKVTPEKQTVPAPVRKYNSNANIITTEDNKIHIHLGSQFKRSPGPAAEGVSPVITVRPVNVTAEKEVSTGTVLRSPRNHLSSRPGASKVTSTITITPVTTSSTRGTQSVSGQDGSSQRPTPTRIPMSKGMKAGKPVVAASGAGNLTKFQPRAETQSMKIELKKSAASSTASLGGGKG
As to B1, the binding result is on record as “binds”.

These data come from patent publication US20040229797A1.
